At least one structure is not confirmed: it was looked up by name or label, or the drawing left a doubt.
Key:
H9C2 cells [1] = experiment: Counting of FDA/PI double stained cells after ischemic reperfusion injury in H9C2; format: cell-based; conditions: H9C2, hypoxia 24 hrs, H2O2 400 μM, reoxygenation 1.5 hrs; 20 μM
[2] = Direct anti-oxidant effect on H2O2 (DHR123 probe, cell-free); format: biochemical; conditions: DHR123 1.25 μM, 2 hrs
Procedure: (§1) 10 μl of DHR123 probe (final concentration: 1.25 μM) was added to 10 μl of each compound which was diluted with 100 μl of DMEM complete media. H2O2 and tBOOH were added as the concentration shown in the following Table 5 and after 2 hrs, fluorescence at wavelengths (480 nm (ex)/538 nm (em)) was measured with spectraMax gemini. Herein, the term “IC25” refers to the concentration of compound which causes 25% decrease of fluorescence assuming the amount emitted by oxidation of DHR123 caused by H2O2 or tBOOH was 100%.

H9C2 cells [3] = experiment: Inhibition of generation of superoxide with MitoSOX red probe in cells; format: cell-based; conditions: MitoSOX red 5 μM
H9C2 cells [4] = experiment: FDA and PI double staining after in vitro ischemic reperfusion injury in H9C2; format: cell-based; conditions: H9C2, hypoxia 24 hrs, H2O2 400 μM, reoxygenation 1.5 hrs; 20 μM
[5] = Anti-oxidant effect by using DPPH; format: biochemical; conditions: read-out: DPPH anti-oxidant effect (IC50); concentration decreasing absorbance at 517 nm to 50%; 30 min, room temperature
Procedure: DPPH (1,1-diphenyl-2-picrylhydrazyl) is a stable free radical and has a purple color. […] Herein, the term “IC50” refers to the concentration of a compound which decreases absorbance at 517 nm to 50% of the original value.
180 μl of DPPH solution (200 μM in DMSO) was dispensed into each well of a 96-well plate, and 20 μl of compounds, which was serially diluted two-fold from 2,000 μM, was added thereto. They were then well mixed and kept at room temperature for 30 minutes. After 30 minutes, O.D. value at 517 nm was measured with a spectraMAX ELISA reader.

[6] = Direct anti-oxidant effect on tBOOH (DHR123 probe, cell-free); format: biochemical; conditions: DHR123 1.25 μM, 2 hrs
Procedure: as §1

H9C2 cells [7] = experiment: Mitochondria swelling after ischemic reperfusion injury in H9C2; format: cell-based; conditions: H9C2, hypoxia 24 hrs, H2O2 400 μM, reoxygenation 1.5 hrs; 20 μM
H9C2 cells [8] = experiment: Anti-oxidant effect by using dihydrorhodamine 123 in tBOOH-treated H9C2 cells; format: cell-based; conditions: fluorescence microscopy of fixed cells
Procedure: Dihydrorhodamine 123 itself is nonfluorescent but is converted to fluorescent rhodamine 123 when it is oxidized by ROS (reactive oxygen species) or RNS (reactive nitrogen species). […] H9C2 cells were dispensed into each well of a 96-well plate (1.5×10^4 cells/100 μl/well). The next day, the cells were pretreated with each compound, which was serially diluted 3-fold from the highest concentration, for 1 hr, and then treated with 10 μl of DHR123 12.5 μM stock solution (final concentration: 1.25 μM) in 37° C. incubator for 30 minutes. The cells were then immediately treated with 400 μM tBOOH and incubated for 2 hrs. Then, fluorescence, which was excited at 480 nm and emitted at 538 nm, was measured with a spectraMAX Gemini microplate reader. […] PBS. Then 100 μl of PBS was added to each well of the 96-well plate and fluorescence of each cell was measured by immunofluorescence microscopy (fluorescence microscope: Olympus) (Because of DHR123 in cells, fluorescence is emitted in proportion to oxidation). In addition, inhibition of the generation of superoxide was measured with MitoSOX red probe (final concentration: 5 μM) as the same method.

SD rats = experiment: Heart injury by ischemia/reperfusion in SD rats (echocardiography); format: in vivo, rat; conditions: LAD ligation 45 min, 30 mg/kg tail vein infusion, then oral once a day for 3 days
H9C2 cells [9] = experiment: FACS analysis of Annexin V and PI double stained cells after ischemic reperfusion injury in H9C2; format: cell-based; conditions: H9C2, hypoxia 24 hrs, H2O2 400 μM, reoxygenation 1.5 hrs; 20 μM
H9C2 cells [10] = experiment: MitoTracker and PI double staining after ischemic reperfusion injury in H9C2; format: cell-based; conditions: H9C2, hypoxia 24 hrs, H2O2 400 μM, reoxygenation 1.5 hrs; 20 μM
[11] = Removal capacity of ONOO− (peroxynitrite) by using dihydrorhodamine 123; format: biochemical; conditions: 50% inhibition of DHR123 oxidation by 1 μM ONOO−
Procedure: ONOO^− (peroxynitrite), which is known as a kind of RNS, plays a very important role in oxidative stress. Thus, it is very important to evaluate the removal capacity of ONOO^− of necrosis inhibitors. It is well known that DHR123 probe is oxidized by ONOO^−. Thus, by using such a property, the capacity of each compound was measured.
10 μl of each compound, which was serially diluted 3-fold from 50 μM, was dispensed into each well of a 96-well plate, and then 170 μl of assay mixture (10 μM DHR123, 1×PBS, 100 μM DPTA without ONOO^−) was added to each well. Finally, 20 μl of ONOO^− solution (final concentration: 1 μM) was added to initiate a reaction. Herein, the term “IC50” refers to the concentration of compounds which causes 50% inhibition of oxidation of DHR123 by ONOO^−.

With O=S1(=O)CCN(Cc2cc(NC3CCOCC3)c3[nH]c(-c4ccccc4)cc3c2)CC1 [Compound 9, (tetrahydropyran-4-yl)-[2-phenyl-5-(1,1-dioxo-thiomorpholin-4-yl)methyl-1H-indol-7-yl]-amine] as the compound, how does the “protective effect against necrotic cell death, direct cell counting (FIG. 12)” value (H9C2 cells [1]) read?
Its value is “protective effect”.

And the “IC25(μM) H2O2 (0.3 mM)” value ([2]; H2O2 0.3 mM)?
The value was 0.85 µM.

What about the “IC25(μM) H2O2 (0.6 mM)” value ([2]; H2O2 0.6 mM) of the same compound?
The value was 2 µM.

And the “anti-oxidant effect in a cell by using MitoSOX red probe (FIG. 2)” value (H9C2 cells [3])?
The value was “anti-oxidant effect”.

And the “protective effect against necrotic cell death, FDA and PI double staining (FIG. 11)” value (H9C2 cells [4])?
Its value is “protective effect”.

What about the IC50 [5] of the same compound?
Its IC50 is 16000 nM.

And the “IC25(μM) tBOOH (0.2 mM)” value ([6]; tBOOH 0.2 mM)?
The value was 1.45 µM.

What about the “IC25(μM) tBOOH (0.4 mM)” value ([6]; tBOOH 0.4 mM) of the same compound?
The value was 2.9 µM.

What about the “effect on mitochondrial swelling (FIG. 14)” value (H9C2 cells [7]) of the same compound?
Its value is “inhibitory effect”.

And the “anti-oxidant effect in a cell by using DHR123 probe (FIG. 1)” value (H9C2 cells [8])?
Its value is “anti-oxidant effect”.

And the “effect on left ventricle swelling in the ischemic reperfusion injury model (FIG. 16)” value (SD rats)?
The value was “inhibitory effect”.

What about the “effect on left ventricular fractional shortening after ischemic reperfusion injury (FIG. 17)” value (SD rats) of the same compound?
Its value is “inhibitory effect”.

And the “protective effect against necrotic cell death, FACS analysis (FIG. 13)” value (H9C2 cells [9])?
The value was “protective effect”.

And the “mitochondrial protective effect, fluorescence microscope (FIG. 15)” value (H9C2 cells [10])?
Its value is “mitochondrial protective effect”.

And the IC50 [11]?
Its IC50 is 500 nM.

Source: patent US10322135B2, “Pharmaceutical composition comprising indole compound” (LG CHEM, LTD., priority 2009, dated 2019)
